Assay results taken from patent US6417235B2, “Method and use of α-amino-β-mercapto-ethane derivatives as dicarbonyl scavengers for treatment of conditions resulting from protein, lipid, and DNA damage” (University of Kentucky Research Foundation, priority 2000, dated 2002).

System: AGE-BSA
Assay: AGE-BSA test (fluorescence quenching control)
Set-up: species or system bovine
Details: compound 10 mM; AGE-BSA added to well after day 5

Work on CC(C)(S)C(N)C(=O)O (racemic) [D,L-Penicillamine] yielded an AGE-BSA test of 15 relative units.

With O=C1CC(=O)NC(=S)N1 [2-Thiobarbituric acid] the AGE-BSA test was 12 relative units.

N=C(N)NN [Aminoguanidine] showed an AGE-BSA test of 10 relative units.

Compound CC(C)(S)[C@@H](N)C(=O)O [D-Penicillamine] has an AGE-BSA test of 12 relative units.
